At least one structure is not confirmed: it was looked up by name or label, or the drawing left a doubt.
Test system: SKOV-3 cells
Experiment: Survival MTT assay, SKOV-3
Assay type: cell-based, human
Conditions: hydrophilic moieties close to the amide
Description: One day prior the treatment with compound, 2000 to 4000 cells per well were plated in a tissue culture treated 96 well format dish with 100 ul of media and incubated at 37° C., 5% CO2. On the day of compound treatment, compounds were diluted with cell culture media to a working stock concentration of 2×. 100 uL of diluted compound were then added to each well. The treated plate was incubated for 72 h at 37° C., 5% CO2. Upon incubation, the cell viability was assessed as followed 20 uL of MTT reagent at 5 mg/ml were added per well to cell plate. The plate was incubated for 2 h at 37° C. in presence of 5% CO2. The supernatant was then removed from the plate and 100 uL of isopropanol were added. The absorbance was measured in a TECAN spectrophotometer at 570 nm. The percentage of viability was expressed in percentage of the signal obtained with non treated cells.

CN[C@@H](C)C(=O)N[C@H](C(=O)N1C[C@@H](NC(=O)c2ccc(C(=O)N[C@H]3C[C@@H](C(=O)N[C@H](C)c4ccccc4)N(C(=O)[C@@H](NC(=O)[C@H](C)NC)C(C)(C)C)C3)cc2)C[C@H]1C(=O)N[C@H](C)c1ccccc1)C(C)(C)C [Compound 49]
activity against SKOV3 cells (SAR): less active
